Measurements from publication PMC4650699.

Amino acid sequences for entries named in this document (tags omitted). A change or cut given only in a name is not applied to a line headed by its entry.
UniProt P68739: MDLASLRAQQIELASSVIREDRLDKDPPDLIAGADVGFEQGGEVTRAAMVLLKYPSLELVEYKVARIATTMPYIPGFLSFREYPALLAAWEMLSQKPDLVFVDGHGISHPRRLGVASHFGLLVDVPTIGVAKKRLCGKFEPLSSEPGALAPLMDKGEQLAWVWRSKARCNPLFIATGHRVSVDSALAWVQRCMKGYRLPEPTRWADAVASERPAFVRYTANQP

Molecular target: EcEndoV-FL (endonuclease V, wild type) (Escherichia coli) (UniProt P68739)
Test: EMSA
Conditions: 40 mM Tris-OAc pH 8.5, 5 mM CaCl2 (or 2.5 mM EDTA), 5 mM DTT, 5% glycerol, 4 uM ssDNA/ssRNA, 4 C 30 min, 6% native PAGE at 4 C, ethidium bromide, recombinant protein, residues 1-223, single-stranded DNA
[1] = no Ca2+, 2.5 mM EDTA, comparable band intensities

Row | Sequence | binding result (5 mM Ca2+, complexes I and II) | binding result [1]
1 | ACGATTTGCAACTATTCGAACTCCT [ssDNA-C] | binds | binds
2 | CCGGGATCAAGTCCACTCACTTAGATGCAC [ssDNA-D] | binds | binds
3 | GTGGTCCATATCCACGCTAG [ssDNA-B] | binds | binds
4 | TTCTCCCGCAGCTGC [ssDNA-A] | binds | binds

For at least one entry, the source does not settle the construct or the ends of the probe. At least one verdict was read from the data and is not stated in words by the source.
